Laboratory results published in patent publication US20260007717A1 (priority 2022, published 2026).
Non-standard residues stand in square brackets, D forms with d. Residues, ends and D or L forms follow the SMILES beside them. Aib = CC(C)(N)C(=O)O

Tests used:
plasmid pUC18 = test: DNA binding gel retardation
[1] = peptide made by a vendor (Fmoc solid-phase peptide synthesis); conditions: whole synthesis, HPLC and Mass Spectrometry
A. baumannii YQ4 = test: Live/Dead SYTO-9 / propidium iodide staining, CLSM; format: cell-based, Acinetobacter baumannii; conditions: COG1410 1×MIC, polymyxin B 5×MIC, 30 min

With `CC(=O)N[C@@H](C)C(=O)N[C@@H](CO)C(=O)NC(C)(C)C(=O)N[C@@H](CC(C)C)C(=O)N[C@@H](CCCNC(=N)N)C(=O)N[C@@H](CCCCN)C(=O)N[C@@H](CC(C)C)C(=O)NC(C)(C)C(=O)N[C@@H](CCCCN)C(=O)N[C@@H](CCCNC(=N)N)C(=O)N[C@@H](CC(C)C)C(=O)N[C@@H](CC(C)C)C(N)=O` [SEQ ID NO: 1, acetyl-AS-aib-LRKL-aib-KRLL-amide] (Ac-AS[Aib]LRKL[Aib]KRLL-NH2) the “electrophoretic mobility of plasmid pUC18” value (plasmid pUC18; 1×MIC) was “only a fraction of the DNA migrated into the gel” and the “electrophoretic mobility of plasmid pUC18” value (plasmid pUC18; higher concentrations) was “completely retarded”.

For Ac-AS[Aib]LRKL[Aib]KRLL-NH2, the “purity (crude or final not stated)” value [1] was 95%.

For polymyxin B [reference compound], the “SYTO-9 / PI staining of treated cells” value (A. baumannii YQ4) was “red fluorescence”.
